No constants are given. Whether binding was seen depends on the method and setting. For some of these results: In cells and extracts the contact can be indirect. Some results given as binding are weak or reduced against the parent protein; the word gives no strength. For some of these results: Where a sequence is shown, tags or fusion partners need not be part of it.
Tests used:
Spo7-PtA (yeast) = molecular target: T1, Spo7-PtA (yeast) (UniProt P18410); assay: co-IP; PtA fusion captured on IgG sepharose from cleared yeast lysates (150 mM KCl, 20 mM Tris HCl pH 8.0, 5 mM MgCl2, 1% Triton X-100), 2 h at 4°C; anti-HA immunoblot; cells growing exponentially or treated with rapamycin (200 ng/ml); Spo7-PtA pull-down also in cells without Nem1
T1 sequence: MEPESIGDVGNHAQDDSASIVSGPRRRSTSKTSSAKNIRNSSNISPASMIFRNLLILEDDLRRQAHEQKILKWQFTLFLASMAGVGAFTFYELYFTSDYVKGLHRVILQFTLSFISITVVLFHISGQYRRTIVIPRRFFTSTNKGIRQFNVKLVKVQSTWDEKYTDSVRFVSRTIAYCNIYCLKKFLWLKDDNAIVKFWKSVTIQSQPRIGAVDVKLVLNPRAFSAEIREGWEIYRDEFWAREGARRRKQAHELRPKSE

Dga1-PtA (yeast) = molecular target: T2, Dga1-PtA (yeast) (UniProt Q08650); assay: as above
T2 sequence: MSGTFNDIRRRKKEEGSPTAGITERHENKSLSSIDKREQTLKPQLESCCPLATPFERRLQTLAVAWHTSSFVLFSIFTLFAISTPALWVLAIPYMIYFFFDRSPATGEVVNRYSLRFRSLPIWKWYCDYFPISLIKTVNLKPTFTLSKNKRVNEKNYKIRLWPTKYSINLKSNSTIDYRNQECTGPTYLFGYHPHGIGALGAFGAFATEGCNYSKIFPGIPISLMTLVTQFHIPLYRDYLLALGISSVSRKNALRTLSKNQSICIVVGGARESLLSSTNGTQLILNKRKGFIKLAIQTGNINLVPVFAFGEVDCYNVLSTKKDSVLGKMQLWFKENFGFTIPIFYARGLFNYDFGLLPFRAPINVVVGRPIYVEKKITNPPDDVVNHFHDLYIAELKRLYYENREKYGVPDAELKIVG

Nem1-Cub-LexA (yeast) = molecular target: T3, Nem1-Cub-LexA (yeast) (UniProt P38757); assay: two-hybrid; split-ubiquitin membrane-based yeast two-hybrid in strain NMY51; NubG fusions against Cub-LexA fusions; growth on plates lacking adenine and β-galactosidase activity (Miller units), exponentially growing cells
T3 sequence: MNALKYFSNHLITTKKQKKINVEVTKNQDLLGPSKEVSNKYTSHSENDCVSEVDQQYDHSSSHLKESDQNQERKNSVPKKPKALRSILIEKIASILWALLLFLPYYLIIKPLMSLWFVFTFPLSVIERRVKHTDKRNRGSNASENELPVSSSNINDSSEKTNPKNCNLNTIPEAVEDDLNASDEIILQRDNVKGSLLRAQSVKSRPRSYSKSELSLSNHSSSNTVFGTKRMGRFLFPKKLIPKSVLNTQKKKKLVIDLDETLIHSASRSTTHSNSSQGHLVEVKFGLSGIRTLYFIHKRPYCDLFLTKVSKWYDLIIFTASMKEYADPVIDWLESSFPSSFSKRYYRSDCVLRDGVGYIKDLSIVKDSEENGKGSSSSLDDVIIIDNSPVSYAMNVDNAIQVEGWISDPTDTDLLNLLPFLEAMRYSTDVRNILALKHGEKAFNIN

Pah1-Cub-LexA (yeast) = molecular target: T4, Pah1-Cub-LexA (yeast) (UniProt P32567); assay: as above
T4 sequence: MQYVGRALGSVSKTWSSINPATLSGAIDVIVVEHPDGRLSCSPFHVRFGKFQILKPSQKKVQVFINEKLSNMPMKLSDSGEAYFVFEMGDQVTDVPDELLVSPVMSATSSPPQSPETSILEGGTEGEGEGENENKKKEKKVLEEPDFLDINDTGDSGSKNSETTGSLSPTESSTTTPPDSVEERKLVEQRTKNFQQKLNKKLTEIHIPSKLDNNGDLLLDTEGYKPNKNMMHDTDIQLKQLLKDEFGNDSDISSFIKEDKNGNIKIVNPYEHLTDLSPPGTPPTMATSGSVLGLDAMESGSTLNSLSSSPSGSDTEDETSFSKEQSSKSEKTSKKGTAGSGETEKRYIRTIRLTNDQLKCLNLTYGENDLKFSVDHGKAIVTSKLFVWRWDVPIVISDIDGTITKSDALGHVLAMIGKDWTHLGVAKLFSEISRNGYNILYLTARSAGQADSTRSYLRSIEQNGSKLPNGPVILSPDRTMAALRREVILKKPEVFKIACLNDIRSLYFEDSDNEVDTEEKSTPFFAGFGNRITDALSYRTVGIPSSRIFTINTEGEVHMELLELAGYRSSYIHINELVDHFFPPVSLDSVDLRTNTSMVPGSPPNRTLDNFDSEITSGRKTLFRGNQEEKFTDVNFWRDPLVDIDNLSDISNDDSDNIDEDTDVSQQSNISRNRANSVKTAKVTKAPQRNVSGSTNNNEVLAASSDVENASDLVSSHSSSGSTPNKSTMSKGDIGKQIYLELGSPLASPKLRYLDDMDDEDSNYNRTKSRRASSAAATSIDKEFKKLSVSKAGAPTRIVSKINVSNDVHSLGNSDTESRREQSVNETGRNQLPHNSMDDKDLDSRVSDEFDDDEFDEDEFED

Spo7-Cub-LexA (yeast) = molecular target: T5, Spo7-Cub-LexA (yeast) (UniProt P18410); assay: as above
T5 sequence: T1 sequence

B1: Nem1-HA3 (enzyme, UniProt P38757 1-446)
chain: T3 sequence
With B1 the binding (Spo7-PtA (yeast)) was “binds”.

B2: Pah1-HA3 (enzyme, UniProt P32567 1-862)
chain: T4 sequence
B2 was tested, and the binding (Dga1-PtA (yeast)) was “no binding” and the binding (Spo7-PtA (yeast)) was “binds”.

B3: NubG-HA-Spo7 (protein, UniProt P18410 1-259)
chain: T1 sequence
B3 was tested, and the binding (Nem1-Cub-LexA (yeast)) was “binds” and the binding (Pah1-Cub-LexA (yeast)) was “binds”.

B4: NubG-HA-Nem1 (enzyme, UniProt P38757 1-446)
chain: T3 sequence
In the case of B4, the binding (Pah1-Cub-LexA (yeast)) is reported as “no binding” and the binding (Spo7-Cub-LexA (yeast)) is reported as “binds”.

Reference: publication PMC4130541
